Laboratory results from publication PMC6992704.
No constants are given. Whether binding was seen depends on the method and setting. In cells and extracts the contact can be indirect. These calls come from enrichment with a bait or labelling near it, and not all partners need be listed.

Protein sequences, listed by entry. Tags and fused reporters are not part of them.
UniProt Q07157: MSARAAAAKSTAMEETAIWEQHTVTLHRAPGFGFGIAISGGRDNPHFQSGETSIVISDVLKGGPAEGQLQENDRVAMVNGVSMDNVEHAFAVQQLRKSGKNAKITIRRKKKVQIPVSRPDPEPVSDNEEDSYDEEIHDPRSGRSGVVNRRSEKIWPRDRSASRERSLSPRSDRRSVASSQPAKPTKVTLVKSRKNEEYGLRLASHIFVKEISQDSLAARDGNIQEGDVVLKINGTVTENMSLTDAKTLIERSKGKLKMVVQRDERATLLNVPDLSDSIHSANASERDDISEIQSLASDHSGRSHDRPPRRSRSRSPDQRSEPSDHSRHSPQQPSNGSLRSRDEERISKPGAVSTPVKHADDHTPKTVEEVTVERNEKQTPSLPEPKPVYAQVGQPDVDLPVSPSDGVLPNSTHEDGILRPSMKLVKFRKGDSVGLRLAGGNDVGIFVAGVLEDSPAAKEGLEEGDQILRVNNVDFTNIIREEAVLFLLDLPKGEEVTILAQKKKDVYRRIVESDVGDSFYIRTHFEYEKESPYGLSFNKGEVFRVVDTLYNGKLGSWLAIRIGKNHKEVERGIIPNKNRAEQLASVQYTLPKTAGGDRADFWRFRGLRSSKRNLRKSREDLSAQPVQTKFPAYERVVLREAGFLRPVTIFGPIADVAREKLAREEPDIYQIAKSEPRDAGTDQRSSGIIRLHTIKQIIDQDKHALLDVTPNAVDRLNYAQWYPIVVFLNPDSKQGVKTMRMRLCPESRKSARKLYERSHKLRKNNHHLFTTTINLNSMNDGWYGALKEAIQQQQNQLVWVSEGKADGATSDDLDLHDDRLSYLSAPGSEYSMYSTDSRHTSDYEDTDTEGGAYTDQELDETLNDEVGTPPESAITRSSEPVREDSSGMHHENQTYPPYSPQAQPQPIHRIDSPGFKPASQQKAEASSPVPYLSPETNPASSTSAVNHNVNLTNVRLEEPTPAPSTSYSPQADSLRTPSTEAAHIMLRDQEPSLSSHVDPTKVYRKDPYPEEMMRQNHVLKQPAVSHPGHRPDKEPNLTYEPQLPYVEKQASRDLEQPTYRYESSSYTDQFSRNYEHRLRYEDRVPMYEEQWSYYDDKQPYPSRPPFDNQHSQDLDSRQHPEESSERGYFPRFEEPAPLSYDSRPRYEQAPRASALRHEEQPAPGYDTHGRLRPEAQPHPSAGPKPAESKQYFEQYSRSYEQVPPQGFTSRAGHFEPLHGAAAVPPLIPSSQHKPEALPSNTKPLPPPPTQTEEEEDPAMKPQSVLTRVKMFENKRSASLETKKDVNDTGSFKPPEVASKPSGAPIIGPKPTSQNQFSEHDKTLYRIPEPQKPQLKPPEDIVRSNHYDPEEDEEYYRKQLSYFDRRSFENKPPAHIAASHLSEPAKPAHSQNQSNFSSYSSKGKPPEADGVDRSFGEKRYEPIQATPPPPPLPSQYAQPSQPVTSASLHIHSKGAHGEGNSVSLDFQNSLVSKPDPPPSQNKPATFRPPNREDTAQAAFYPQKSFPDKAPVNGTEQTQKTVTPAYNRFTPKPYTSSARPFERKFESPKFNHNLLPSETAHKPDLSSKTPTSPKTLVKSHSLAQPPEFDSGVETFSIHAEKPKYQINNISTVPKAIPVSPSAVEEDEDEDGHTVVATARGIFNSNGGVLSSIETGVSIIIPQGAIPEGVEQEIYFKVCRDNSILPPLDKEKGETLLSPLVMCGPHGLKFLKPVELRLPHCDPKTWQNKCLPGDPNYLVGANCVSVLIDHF
UniProt O35973: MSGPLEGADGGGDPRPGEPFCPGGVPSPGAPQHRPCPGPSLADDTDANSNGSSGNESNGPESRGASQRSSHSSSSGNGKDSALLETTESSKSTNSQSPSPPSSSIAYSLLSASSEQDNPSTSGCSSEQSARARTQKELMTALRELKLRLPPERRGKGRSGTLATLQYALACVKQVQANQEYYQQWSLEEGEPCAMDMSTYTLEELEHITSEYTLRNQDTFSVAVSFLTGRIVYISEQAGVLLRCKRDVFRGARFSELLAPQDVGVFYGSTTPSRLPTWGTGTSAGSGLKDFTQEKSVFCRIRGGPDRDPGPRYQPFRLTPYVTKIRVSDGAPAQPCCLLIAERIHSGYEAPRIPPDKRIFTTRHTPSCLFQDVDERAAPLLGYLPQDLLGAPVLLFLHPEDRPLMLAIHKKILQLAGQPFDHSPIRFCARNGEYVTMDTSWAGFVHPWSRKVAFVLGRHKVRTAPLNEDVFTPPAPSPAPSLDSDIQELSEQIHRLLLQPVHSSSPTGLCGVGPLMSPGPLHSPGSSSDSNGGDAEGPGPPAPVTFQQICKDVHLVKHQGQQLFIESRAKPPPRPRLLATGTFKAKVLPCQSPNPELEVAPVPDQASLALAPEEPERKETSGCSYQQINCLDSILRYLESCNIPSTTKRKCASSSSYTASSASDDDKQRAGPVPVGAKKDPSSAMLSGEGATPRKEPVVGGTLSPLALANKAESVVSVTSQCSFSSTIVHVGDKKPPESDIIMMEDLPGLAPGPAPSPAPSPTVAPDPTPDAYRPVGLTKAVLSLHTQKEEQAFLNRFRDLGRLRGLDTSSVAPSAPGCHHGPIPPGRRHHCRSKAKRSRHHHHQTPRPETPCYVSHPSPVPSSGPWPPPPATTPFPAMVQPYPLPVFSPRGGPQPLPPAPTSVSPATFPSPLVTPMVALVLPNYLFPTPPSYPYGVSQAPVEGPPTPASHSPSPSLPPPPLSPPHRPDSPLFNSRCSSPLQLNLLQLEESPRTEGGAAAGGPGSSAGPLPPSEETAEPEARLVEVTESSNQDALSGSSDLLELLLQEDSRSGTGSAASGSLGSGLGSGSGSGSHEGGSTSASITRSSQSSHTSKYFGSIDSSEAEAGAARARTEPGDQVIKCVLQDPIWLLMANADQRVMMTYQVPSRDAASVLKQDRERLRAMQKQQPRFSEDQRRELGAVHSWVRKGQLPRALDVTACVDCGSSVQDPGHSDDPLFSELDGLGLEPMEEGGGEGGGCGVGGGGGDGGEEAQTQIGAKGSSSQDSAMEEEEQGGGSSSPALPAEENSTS

Molecular target: HA-tagged TJP1 (tight junction protein 1), adenoviral (human) (UniProt Q07157)
Test: affinity purification with mass spectrometry; immunoprecipitates of TJP1 from mouse primary hepatocytes cultured in a collagen sandwich (methods: hepatocytes infected with HA-TJP1 adenovirus; results: endogenous TJP1); electrospray ionization tandem MS, Thermo LTQ Orbitrap

“endogenous PER1 (period circadian regulator 1) (from UniProt O35973 1-1291)” was tested, and the binding was “binds”.
